Some of the results follow.
Experiments:
Assay in all cases: log2 fold change, soluble protein after heating vs DMSO (PISA); higher = thermal stabilisation; K562 cells, 10 uM, 30 min; active = over 0.2 and 3.5 SD of the protein, either way, in both replicates (recomputed)
[1] = compound: COC1=CC=C(C=C1)CN2C=CC3=C2C=C(C=C3)C(=O)NO
How it was run: (§1)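 Soluble protein was defined as the supernatant after 21,000xg for 90 min. It came from K562 cells at 2×10^6 cells/mL given 10 μM compound for 30 min, heated in aliquots for 3 min across 48°C-58°C, pooled, and extracted in PBS with 0.5% NP-40 at 4°C, and was quantified by TMTpro 16plex LC-MS/MS with equalised channel sums. Thermal stability against control samples, from duplicates, is reported as log2 fold change.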

Protein sequences, listed by entry. Tags and fused reporters are not part of them. Lines headed by an entry give the natural chain unless they say otherwise; changes in a name come on top.
UniProt O14526: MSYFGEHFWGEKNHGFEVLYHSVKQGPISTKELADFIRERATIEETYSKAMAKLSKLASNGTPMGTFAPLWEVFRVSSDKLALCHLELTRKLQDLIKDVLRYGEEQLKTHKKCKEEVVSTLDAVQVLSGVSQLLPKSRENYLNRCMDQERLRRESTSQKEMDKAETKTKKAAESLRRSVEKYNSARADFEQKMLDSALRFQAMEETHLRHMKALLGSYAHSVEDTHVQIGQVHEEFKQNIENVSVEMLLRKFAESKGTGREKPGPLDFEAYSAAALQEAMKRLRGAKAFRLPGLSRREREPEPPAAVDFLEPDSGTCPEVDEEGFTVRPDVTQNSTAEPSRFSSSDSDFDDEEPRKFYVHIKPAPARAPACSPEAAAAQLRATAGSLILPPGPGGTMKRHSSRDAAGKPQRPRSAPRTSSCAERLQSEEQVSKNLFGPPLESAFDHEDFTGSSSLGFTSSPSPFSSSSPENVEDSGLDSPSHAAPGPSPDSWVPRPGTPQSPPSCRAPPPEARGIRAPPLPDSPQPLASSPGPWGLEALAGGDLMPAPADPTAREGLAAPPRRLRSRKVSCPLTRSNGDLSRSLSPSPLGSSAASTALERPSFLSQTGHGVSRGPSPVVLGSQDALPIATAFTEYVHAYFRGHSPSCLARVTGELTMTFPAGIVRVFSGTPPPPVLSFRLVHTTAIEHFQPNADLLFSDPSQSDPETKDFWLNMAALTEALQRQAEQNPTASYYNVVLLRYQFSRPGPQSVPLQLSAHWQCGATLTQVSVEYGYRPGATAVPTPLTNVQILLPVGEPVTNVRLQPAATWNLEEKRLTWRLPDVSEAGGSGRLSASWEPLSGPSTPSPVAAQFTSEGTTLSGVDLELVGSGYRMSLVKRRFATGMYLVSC
UniProt Q5HYJ3: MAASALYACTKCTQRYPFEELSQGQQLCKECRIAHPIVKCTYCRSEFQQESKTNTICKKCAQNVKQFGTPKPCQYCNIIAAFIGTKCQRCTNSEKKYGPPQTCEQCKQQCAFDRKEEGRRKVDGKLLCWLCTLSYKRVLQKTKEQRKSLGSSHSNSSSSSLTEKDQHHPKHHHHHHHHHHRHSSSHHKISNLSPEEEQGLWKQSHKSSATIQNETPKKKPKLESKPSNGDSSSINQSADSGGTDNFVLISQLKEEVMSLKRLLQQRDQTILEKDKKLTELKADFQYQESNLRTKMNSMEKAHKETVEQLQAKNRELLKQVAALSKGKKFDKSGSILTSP
UniProt Q00688: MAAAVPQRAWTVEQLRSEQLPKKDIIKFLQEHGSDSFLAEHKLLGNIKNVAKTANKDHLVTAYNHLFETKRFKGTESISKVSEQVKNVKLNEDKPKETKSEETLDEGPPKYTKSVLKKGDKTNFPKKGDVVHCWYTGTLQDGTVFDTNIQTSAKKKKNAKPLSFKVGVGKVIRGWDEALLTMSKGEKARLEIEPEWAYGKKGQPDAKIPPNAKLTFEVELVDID
UniProt Q5T1M5: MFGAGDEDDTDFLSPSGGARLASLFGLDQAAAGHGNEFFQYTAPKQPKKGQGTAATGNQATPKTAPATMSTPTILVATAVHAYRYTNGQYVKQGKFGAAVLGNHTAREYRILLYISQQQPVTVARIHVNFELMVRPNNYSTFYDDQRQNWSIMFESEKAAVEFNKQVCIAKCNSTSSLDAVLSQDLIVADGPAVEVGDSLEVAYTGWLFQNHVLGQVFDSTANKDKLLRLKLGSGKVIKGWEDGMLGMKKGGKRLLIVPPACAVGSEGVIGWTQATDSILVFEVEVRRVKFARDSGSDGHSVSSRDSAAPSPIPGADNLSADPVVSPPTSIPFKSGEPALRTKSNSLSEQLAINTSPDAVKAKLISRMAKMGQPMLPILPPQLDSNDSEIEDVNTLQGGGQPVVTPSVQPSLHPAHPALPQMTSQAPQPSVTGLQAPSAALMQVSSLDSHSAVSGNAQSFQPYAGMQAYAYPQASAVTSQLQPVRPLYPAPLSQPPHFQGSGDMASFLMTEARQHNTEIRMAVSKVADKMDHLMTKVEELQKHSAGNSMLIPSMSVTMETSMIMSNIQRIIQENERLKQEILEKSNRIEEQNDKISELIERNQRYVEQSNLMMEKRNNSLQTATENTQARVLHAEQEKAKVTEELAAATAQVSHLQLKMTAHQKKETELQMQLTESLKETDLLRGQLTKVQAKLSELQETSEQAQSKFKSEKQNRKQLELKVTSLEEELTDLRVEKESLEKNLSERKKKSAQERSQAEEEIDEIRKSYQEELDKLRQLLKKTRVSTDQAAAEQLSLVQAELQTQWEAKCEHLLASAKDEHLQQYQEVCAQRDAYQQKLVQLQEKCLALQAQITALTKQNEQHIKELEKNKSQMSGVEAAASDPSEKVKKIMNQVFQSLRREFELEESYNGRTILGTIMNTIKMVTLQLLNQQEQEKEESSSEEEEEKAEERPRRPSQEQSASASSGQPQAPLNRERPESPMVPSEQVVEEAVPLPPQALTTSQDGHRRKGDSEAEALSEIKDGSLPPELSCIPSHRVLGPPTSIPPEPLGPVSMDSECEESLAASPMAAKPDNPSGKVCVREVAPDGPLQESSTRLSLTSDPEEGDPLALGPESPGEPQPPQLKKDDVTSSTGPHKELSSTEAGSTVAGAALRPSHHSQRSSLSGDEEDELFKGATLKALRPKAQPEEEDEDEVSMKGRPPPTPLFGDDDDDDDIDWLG
UniProt P21333, whole entry, looked up: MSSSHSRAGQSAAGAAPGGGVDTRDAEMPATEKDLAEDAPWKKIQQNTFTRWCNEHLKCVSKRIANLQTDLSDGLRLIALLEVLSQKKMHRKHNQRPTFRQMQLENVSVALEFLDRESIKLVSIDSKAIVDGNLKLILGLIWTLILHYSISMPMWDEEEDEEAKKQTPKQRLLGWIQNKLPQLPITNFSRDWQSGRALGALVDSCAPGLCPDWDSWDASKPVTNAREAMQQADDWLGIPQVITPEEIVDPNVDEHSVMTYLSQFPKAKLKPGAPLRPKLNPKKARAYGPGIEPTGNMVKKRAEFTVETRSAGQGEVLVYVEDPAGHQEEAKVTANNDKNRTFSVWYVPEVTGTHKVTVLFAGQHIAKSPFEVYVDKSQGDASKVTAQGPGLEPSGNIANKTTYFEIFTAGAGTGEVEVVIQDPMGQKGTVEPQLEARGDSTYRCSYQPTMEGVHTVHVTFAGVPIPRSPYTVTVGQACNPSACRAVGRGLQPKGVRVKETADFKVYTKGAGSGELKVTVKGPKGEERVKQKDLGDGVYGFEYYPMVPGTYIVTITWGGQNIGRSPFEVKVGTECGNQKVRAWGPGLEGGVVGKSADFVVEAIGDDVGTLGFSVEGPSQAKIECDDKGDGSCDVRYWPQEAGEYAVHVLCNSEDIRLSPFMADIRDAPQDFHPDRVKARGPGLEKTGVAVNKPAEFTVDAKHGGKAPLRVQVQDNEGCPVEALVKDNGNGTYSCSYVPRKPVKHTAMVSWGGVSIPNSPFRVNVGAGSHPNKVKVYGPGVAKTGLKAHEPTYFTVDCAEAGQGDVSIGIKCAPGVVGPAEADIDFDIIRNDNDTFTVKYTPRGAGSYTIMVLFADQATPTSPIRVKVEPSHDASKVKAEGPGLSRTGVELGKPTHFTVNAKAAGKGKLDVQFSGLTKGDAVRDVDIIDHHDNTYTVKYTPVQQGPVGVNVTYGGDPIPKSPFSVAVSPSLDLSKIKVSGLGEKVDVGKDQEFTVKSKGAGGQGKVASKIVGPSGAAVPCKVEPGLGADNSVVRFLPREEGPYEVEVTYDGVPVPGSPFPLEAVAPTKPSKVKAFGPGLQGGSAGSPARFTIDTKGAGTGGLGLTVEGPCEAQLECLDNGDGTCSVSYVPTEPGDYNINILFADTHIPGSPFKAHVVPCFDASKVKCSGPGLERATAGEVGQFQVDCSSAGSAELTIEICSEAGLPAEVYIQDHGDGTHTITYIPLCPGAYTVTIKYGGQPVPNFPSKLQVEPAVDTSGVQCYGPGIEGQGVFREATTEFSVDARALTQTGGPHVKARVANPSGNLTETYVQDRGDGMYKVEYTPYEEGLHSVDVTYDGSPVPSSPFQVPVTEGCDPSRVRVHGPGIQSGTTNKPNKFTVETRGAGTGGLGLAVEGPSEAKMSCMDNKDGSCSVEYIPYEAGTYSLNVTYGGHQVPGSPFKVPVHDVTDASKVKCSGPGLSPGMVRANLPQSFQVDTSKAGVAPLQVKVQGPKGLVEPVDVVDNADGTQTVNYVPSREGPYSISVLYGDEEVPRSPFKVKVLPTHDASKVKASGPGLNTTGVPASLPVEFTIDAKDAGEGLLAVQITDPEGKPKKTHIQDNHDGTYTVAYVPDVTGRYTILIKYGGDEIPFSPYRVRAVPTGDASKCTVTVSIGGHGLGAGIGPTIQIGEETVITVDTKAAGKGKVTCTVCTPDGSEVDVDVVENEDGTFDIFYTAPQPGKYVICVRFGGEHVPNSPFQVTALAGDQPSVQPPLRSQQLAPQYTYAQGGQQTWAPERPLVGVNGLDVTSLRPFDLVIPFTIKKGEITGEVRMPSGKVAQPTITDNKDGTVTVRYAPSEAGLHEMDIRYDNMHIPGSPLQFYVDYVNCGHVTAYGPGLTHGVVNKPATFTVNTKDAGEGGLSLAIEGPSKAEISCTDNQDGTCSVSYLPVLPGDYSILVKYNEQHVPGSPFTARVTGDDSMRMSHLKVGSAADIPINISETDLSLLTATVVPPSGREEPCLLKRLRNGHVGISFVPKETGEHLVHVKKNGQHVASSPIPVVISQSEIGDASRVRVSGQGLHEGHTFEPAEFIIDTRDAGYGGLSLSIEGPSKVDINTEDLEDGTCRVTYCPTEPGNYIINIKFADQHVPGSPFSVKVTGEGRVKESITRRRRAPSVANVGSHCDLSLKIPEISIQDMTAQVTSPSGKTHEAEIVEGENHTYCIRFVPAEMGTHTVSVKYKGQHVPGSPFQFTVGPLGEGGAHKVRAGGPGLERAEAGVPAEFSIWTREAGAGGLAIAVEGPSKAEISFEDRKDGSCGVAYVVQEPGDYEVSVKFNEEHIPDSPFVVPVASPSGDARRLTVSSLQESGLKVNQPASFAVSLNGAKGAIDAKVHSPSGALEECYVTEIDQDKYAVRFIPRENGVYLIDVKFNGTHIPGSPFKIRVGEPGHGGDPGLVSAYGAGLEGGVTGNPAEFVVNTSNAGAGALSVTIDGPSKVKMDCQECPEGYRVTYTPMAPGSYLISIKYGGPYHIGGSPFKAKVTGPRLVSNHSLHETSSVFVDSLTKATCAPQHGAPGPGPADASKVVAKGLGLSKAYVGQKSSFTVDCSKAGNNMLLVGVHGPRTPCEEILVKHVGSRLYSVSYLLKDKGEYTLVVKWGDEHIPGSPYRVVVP
UniProt Q9Y5Y0: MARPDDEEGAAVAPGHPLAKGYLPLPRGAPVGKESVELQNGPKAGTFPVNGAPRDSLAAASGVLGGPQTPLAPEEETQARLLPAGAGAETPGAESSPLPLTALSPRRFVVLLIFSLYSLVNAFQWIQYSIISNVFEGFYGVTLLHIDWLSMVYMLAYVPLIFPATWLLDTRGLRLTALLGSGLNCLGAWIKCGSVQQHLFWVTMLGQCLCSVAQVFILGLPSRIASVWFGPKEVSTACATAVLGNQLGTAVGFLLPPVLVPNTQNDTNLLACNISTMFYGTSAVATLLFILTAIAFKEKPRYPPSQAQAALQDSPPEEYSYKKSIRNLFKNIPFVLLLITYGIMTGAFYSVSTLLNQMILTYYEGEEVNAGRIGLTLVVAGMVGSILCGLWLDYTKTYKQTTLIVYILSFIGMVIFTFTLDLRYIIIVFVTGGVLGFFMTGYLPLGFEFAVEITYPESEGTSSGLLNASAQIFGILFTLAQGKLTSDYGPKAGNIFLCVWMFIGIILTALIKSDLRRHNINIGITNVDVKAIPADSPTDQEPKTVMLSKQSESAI
UniProt O75955: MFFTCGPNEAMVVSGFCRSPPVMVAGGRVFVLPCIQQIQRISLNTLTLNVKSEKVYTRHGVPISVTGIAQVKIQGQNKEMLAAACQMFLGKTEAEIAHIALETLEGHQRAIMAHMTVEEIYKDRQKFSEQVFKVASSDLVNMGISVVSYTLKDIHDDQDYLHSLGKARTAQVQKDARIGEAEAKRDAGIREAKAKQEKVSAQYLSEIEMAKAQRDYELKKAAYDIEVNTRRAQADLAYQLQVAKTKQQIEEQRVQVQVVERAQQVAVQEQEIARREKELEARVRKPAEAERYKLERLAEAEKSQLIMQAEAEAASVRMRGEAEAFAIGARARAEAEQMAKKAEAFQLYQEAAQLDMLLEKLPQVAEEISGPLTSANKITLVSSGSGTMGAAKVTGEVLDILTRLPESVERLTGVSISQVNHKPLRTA
UniProt Q92913: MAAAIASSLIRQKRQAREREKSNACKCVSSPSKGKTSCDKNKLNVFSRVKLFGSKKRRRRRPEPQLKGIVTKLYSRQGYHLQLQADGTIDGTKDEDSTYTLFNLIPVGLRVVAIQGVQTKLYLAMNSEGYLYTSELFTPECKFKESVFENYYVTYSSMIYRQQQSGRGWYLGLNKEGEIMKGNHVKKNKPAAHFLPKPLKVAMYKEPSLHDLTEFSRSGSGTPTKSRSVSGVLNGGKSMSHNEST

filanesib = compound: CON(C)C(=O)N1N=C(c2cc(F)ccc2F)S[C@@]1(CCCN)c1ccccc1 [filanesib]
How it was run: as §1

zotarolimus = compound: CO[C@H]1C[C@@H]2CC[C@@H](C)[C@@](O)(O2)C(=O)C(=O)N2CCCC[C@H]2C(=O)O[C@H]([C@H](C)C[C@@H]2CC[C@H](n3cnnn3)[C@H](OC)C2)CC(=O)[C@H](C)/C=C(\C)[C@@H](O)[C@@H](OC)C(=O)[C@H](C)C[C@H](C)/C=C/C=C/C=C/1C [zotarolimus]
How it was run: as §1

idasanutlin = compound: COc1cc(C(=O)O)ccc1NC(=O)[C@@H]1N[C@@H](CC(C)(C)C)[C@](C#N)(c2ccc(Cl)cc2F)[C@H]1c1cccc(Cl)c1F [idasanutlin]
How it was run: as §1

alisertib = compound: COc1cc(Nc2ncc3c(n2)-c2ccc(Cl)cc2C(c2c(F)cccc2OC)=NC3)ccc1C(=O)O [alisertib]
How it was run: as §1

[2] = compound: COc1cc2nc(-c3cc(F)ccc3O)nc(N[C@@H]3CNC[C@H]3C(C)(C)O)c2cc1OC
How it was run: as §1

gefitinib = compound: COc1cc2ncnc(Nc3ccc(F)c(Cl)c3)c2cc1OCCCN1CCOCC1 [gefitinib]
How it was run: as §1

[3] = compound: COc1cccc2cc(-c3nc([C@H]4CC[C@H](C(=O)O)CC4)n4ncnc(N)c34)[nH]c12
How it was run: as §1

lapatinib = compound: CS(=O)(=O)CCNCc1ccc(-c2ccc3ncnc(Nc4ccc(OCc5cccc(F)c5)c(Cl)c4)c3c2)o1 [lapatinib]
How it was run: as §1

pictilisib = compound: CS(=O)(=O)N1CCN(Cc2cc3nc(-c4cccc5[nH]ncc45)nc(N4CCOCC4)c3s2)CC1 [pictilisib]
How it was run: as §1

Target | log2 fold change [1] | log2 fold change (filanesib) | log2 fold change (zotarolimus) | log2 fold change (idasanutlin) | log2 fold change (alisertib) | log2 fold change [2] | log2 fold change (gefitinib) | log2 fold change [3] | log2 fold change (lapatinib) | log2 fold change (pictilisib)
FCHO1 (UniProt O14526) | inactive: 0.061 | inactive: 0.055 | inactive: 0.068 | inactive: 0.072 | inactive: -0.055 | inactive: 0.256 | inactive: 0.046 | inactive: 0.022 | inactive: -0.105 | –
FHL3 (UniProt Q13643) | inactive: -0.032 | inactive: 0.039 | inactive: -0.058 | inactive: 0.001 | inactive: -0.067 | inactive: 0.005 | inactive: -0.02 | inactive: -0.002 | inactive: -0.027 | inactive: 0.003
FAM76B (UniProt Q5HYJ3) | inactive: 0.183 | inactive: 0.159 | inactive: -0.014 | inactive: -0.186 | inactive: -0.031 | inactive: 0.027 | inactive: 0.117 | inactive: 0.16 | inactive: 0.066 | inactive: -0.141
FHOD1 (UniProt Q9Y613) | inactive: -0.044 | inactive: 0.084 | inactive: 0.095 | inactive: 0.127 | inactive: -0.161 | inactive: 0.186 | inactive: -0.005 | inactive: -0.253 | inactive: 0.014 | inactive: 0.01
FKBP8 isoform 2 (UniProt Q14318) | inactive: 0.054 | inactive: 0.146 | inactive: 0.109 | inactive: 0.186 | inactive: -0.075 | inactive: -0.02 | inactive: -0.018 | inactive: -0.231 | inactive: 0.171 | inactive: -0.167
FKBP3 (UniProt Q00688) | inactive: 0.219 | inactive: -0.04 | active: 0.354 | inactive: -0.015 | inactive: -0.052 | inactive: 0.047 | inactive: -0.023 | inactive: 0 | inactive: -0.029 | inactive: 0.004
FBXO6 (UniProt Q9NRD1) | inactive: -0.016 | inactive: 0.008 | inactive: 0.044 | inactive: -0.17 | inactive: -0.043 | inactive: 0.022 | inactive: 0.059 | inactive: 0.038 | inactive: 0.026 | inactive: -0.091
FKBP15 (UniProt Q5T1M5) | inactive: 0.034 | inactive: 0.069 | inactive: 0.032 | inactive: 0.018 | inactive: 0.011 | inactive: 0.094 | inactive: 0.056 | inactive: -0.071 | inactive: 0.01 | inactive: 0.011
FLYWCH2 (UniProt Q96CP2) | inactive: -0.066 | inactive: 0.063 | inactive: 0.007 | inactive: -0.03 | inactive: -0.053 | inactive: -0.118 | inactive: -0.002 | inactive: 0.057 | inactive: 0 | inactive: -0.13
FLII (UniProt Q13045) | inactive: 0.016 | inactive: 0 | inactive: 0.013 | inactive: -0.01 | inactive: 0.002 | inactive: 0.034 | inactive: 0.005 | inactive: -0.007 | inactive: 0.009 | inactive: 0.048
FAM32A (UniProt Q9Y421) | inactive: 0.416 | inactive: 0.163 | inactive: 0.009 | inactive: 0.05 | inactive: -0.014 | inactive: 0.035 | inactive: -0.311 | inactive: -0.038 | inactive: 0.035 | inactive: 0.021
FANCI (UniProt Q9NVI1) | inactive: 0.004 | inactive: -0.189 | inactive: -0.01 | inactive: -0.014 | inactive: -0.015 | inactive: -0.113 | inactive: -0.034 | inactive: 0.033 | inactive: 0.001 | inactive: 0
FAM83D (UniProt Q9H4H8) | inactive: -0.009 | inactive: 0.062 | inactive: 0.051 | inactive: -0.109 | inactive: -0.135 | inactive: 0.018 | inactive: 0.05 | inactive: -0.034 | inactive: 0.021 | inactive: -0.136
FLNA (UniProt P21333) | inactive: 0.042 | inactive: 0.026 | inactive: 0.043 | inactive: -0.066 | inactive: 0.036 | inactive: 0.039 | inactive: 0.03 | inactive: -0.095 | inactive: -0.049 | inactive: 0.031
FKBP7 (UniProt Q9Y680) | inactive: -0.152 | inactive: -0.036 | inactive: -0.029 | inactive: 0.047 | inactive: -0.063 | inactive: 0.047 | inactive: 0.086 | inactive: 0.003 | inactive: -0.065 | inactive: -0.007
FDPS (UniProt P14324) | inactive: 0.048 | inactive: -0.246 | inactive: 0.019 | inactive: -0.063 | inactive: 0.066 | inactive: 0.118 | inactive: -0.047 | inactive: 0.009 | inactive: -0.018 | inactive: -0.076
FNBP4 isoform 2 (UniProt Q8N3X1) | inactive: -0.026 | inactive: -0.01 | inactive: -0.032 | inactive: 0 | inactive: -0.097 | inactive: -0.029 | inactive: 0.015 | inactive: 0.022 | inactive: 0.02 | inactive: -0.015
FBLN1 (UniProt P23142) | inactive: -0.014 | inactive: 0.004 | inactive: -0.138 | inactive: 0.142 | inactive: -0.143 | inactive: -0.105 | inactive: -0.179 | inactive: 0.383 | inactive: -0.031 | inactive: -0.136
FAM3A (UniProt P98173) | inactive: -0.057 | inactive: -0.022 | inactive: 0.005 | inactive: 0.007 | inactive: 0.044 | inactive: -0.021 | inactive: 0.04 | inactive: 0.066 | inactive: 0.067 | inactive: 0.055
FLVCR1 (UniProt Q9Y5Y0) | inactive: -0.025 | inactive: 0.093 | inactive: -0.161 | inactive: -0.028 | inactive: -0.008 | inactive: 0.019 | inactive: -0.022 | inactive: 0.037 | inactive: -0.096 | inactive: 0.117
FECH isoform 2 (UniProt P22830) | inactive: 0.159 | inactive: -0.188 | inactive: 0.082 | inactive: -0.127 | inactive: -0.185 | inactive: 0.363 | inactive: 0.153 | inactive: 0.062 | inactive: 0.269 | inactive: 0.396
FLOT1 (UniProt O75955) | inactive: -0.09 | inactive: 0.104 | inactive: 0.053 | inactive: 0.095 | inactive: -0.226 | inactive: -0.113 | inactive: 0.014 | inactive: -0.311 | inactive: 0.078 | inactive: -0.079
FEZ2 isoform 2 (UniProt Q9UHY8) | inactive: 0.166 | inactive: 0.057 | inactive: -0.003 | inactive: 0.074 | inactive: 0.038 | inactive: 0.106 | inactive: 0.041 | inactive: 0.124 | inactive: -0.219 | inactive: -0.044
FNBP1L (UniProt Q5T0N5) | inactive: -0.054 | inactive: 0.025 | inactive: -0.038 | inactive: 0.074 | inactive: 0.134 | inactive: 0.082 | inactive: -0.024 | inactive: -0.007 | inactive: -0.02 | inactive: 0.086
FGF13 isoform 3 (UniProt Q92913) | inactive: -0.041 | inactive: -0.011 | inactive: 0.046 | inactive: 0.006 | inactive: 0.203 | inactive: 0.014 | inactive: 0.003 | inactive: 0.064 | inactive: 0.066 | inactive: -0.056
FBLL1 (UniProt A6NHQ2) | inactive: -0.125 | inactive: 0.539 | inactive: 0.088 | inactive: 0.409 | inactive: -0.041 | inactive: -0.046 | inactive: 0.199 | inactive: 0.051 | inactive: 0.124 | inactive: -0.161
FHL2 (UniProt Q14192) | inactive: 0.032 | inactive: 0.019 | inactive: -0.058 | inactive: 0.033 | inactive: -0.136 | inactive: 0.036 | inactive: -0.009 | inactive: 0.005 | inactive: -0.007 | inactive: -0.039
FAM50A (UniProt Q14320) | inactive: -0.019 | inactive: -0.008 | inactive: 0.026 | inactive: -0.025 | inactive: -0.003 | inactive: -0.026 | inactive: 0.039 | inactive: -0.025 | inactive: 0.022 | inactive: 0.056
FBXO5 (UniProt Q9UKT4) | inactive: 0.034 | inactive: 0.023 | inactive: 0.005 | inactive: 0.024 | inactive: -0.04 | inactive: 0.008 | inactive: -0.009 | inactive: 0.007 | inactive: 0.035 | inactive: -0.082

— the supplement of paper PMC10849652
